Patent US20240408055A1 (priority 2021, published 2024)
For part of these data: At least one compound was matched to its structure with a doubt left. Some of these results come from one statement about several compounds together.

Tests used:
[1] = tested on: novel coronavirus; details: hamster, oral, three days; drug 30 mg/kg/day, extract 200 mg/kg/day; cited from earlier work
[2] = tested on: SARS-CoV-2; details: mouse, in vivo

| Compound | virus load reduction compared with receiving water only [1] | changes in the titers of coronavirus infection in the lungs of mice [2] |
| --- | --- | --- |
| OC(c1cc(C(F)(F)F)nc2c(C(F)(F)F)cccc12)C1CCCCN1 (stereo not drawn) [Mefloquine] | up to 10 times |  |
| CCC(CC)COC(=O)[C@H](C)N[P@](=O)(OC[C@H]1O[C@@](C#N)(c2ccc3c(N)ncnn23)[C@H](O)[C@@H]1O)Oc1ccccc1 [Remdesivir, reference compound] |  | showed prevention and control effects |
| Cc1c(O)cccc1C(=O)N[C@@H](CSc1ccccc1)[C@H](O)CN1C[C@H]2CCCC[C@H]2C[C@H]1C(=O)NC(C)(C)C [Nelfinavir] | up to 10 times |  |
